# From the supplement of paper PMC9135407
# Where “and” joins values, the source holds several entries; their conditions need not be identical. Equal entries are not always repeated. Structures can show the parent of a compound that is named as a salt. ± gives the standard deviation of the averaged measurements. The list shows a part of the results. Baselines shift from plate to plate; read single values as rough.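 Primary human stellate myofibroblasts activated in culture; inactivation shown by regained lipid droplets. Readout: fraction of Hoechst-counted cells exceeding a per-plate Bodipy threshold, duplicate wells, each plate with DMSO negative and nortriptyline positive controls. Hits: control-normalized score beyond the plate's top-tenth-percentile nortriptyline wells, or among its three best wells. Final well concentrations unstated.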
# Test system: primary human hepatic stellate cells (donor 1)
# Assay: percent Bodipy-positive cells; higher = more lipid droplet accumulation
# Conditions: 48 h
# Protocol: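 Primary lipid accumulation screen in primary human hepatic stellate cell myofibroblasts (donor 1, passage 8) in 384-well plates. 100 nL of library compound was pin-transferred into 30 µL medium in duplicate, and cells were treated for 48 h. The 'Scaled' score combines distance from plate baseline, toxicity and reproducibility penalties, and is normalised to nortriptyline (positive) and DMSO (negative) controls on each plate. A hit is defined as scaled >0.85 or among the top 3 wells per plate.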
# [1] = library stock concentration: 3.33 mM
# [2] = library stock concentration: 10 mM
# [3] = library stock concentration: 400 uM
# [4] = library stock concentration: 2 mM
# [5] = library stock concentration: 1 mM
# [6] = library stock concentration: 80 uM
compound,measurement,setting,value
CC(C)(CO)c1cc2cc(NC(=O)C3(c4ccc5c(c4)OC(F)(F)O5)CC3)c(F)cc2n1C[C@@H](O)CO,percent Bodipy-positive cells,[1],11.3 ± 5%
same,percent Bodipy-positive cells,[2],28.5 ± 1%
Cc1cnc(-c2cc(N3CCN(C(=O)CCS(C)(=O)=O)CC3)ncc2Cl)c(C)c1,percent Bodipy-positive cells,[1],9.26 ± 2.7%
same,percent Bodipy-positive cells,[2],11.7 ± 0.54%
COC(=O)c1ccc2c(c1)NC(=O)C2=C(Nc1ccc(N(C)C(=O)CN2CCN(C)CC2)cc1)c1ccccc1,percent Bodipy-positive cells,[2],90.5 ± 1.8%
c1nc2c(NC3CCCCC3)nc(Nc3ccc(N4CCOCC4)cc3)nc2[nH]1 [Reversine],percent Bodipy-positive cells,[1],9.78 ± 0.45%
COc1cc2nccc(Oc3ccc(NC(=O)NC4CC4)c(Cl)c3)c2cc1C(N)=O,percent Bodipy-positive cells,[3],11.7 ± 2.6%
same,percent Bodipy-positive cells,[4],14.9 ± 5.1%
same,percent Bodipy-positive cells,[2],19.2 ± 6.2%
COc1cc2nccc(Oc3ccc(NC(=O)NC4CC4)c(Cl)c3)c2cc1C(N)=O [Lenvatinib (E7080)],percent Bodipy-positive cells,[1],5.68 ± 0.6%
same,percent Bodipy-positive cells,[2],10.8 ± 6.2%
CCC(C)(Oc1ccc(C2(c3ccc(OC(C)(CC)C(=O)O)cc3)CCCCC2)cc1)C(=O)O (stereo not given) [Clinofibrate],percent Bodipy-positive cells,[1],13.2 ± 5.6%
same,percent Bodipy-positive cells,[2],15.1 ± 4.8%
C[C@@H](O[C@H]1OCCN(Cc2nn(P(=O)(O)O)c(=O)[nH]2)[C@H]1c1ccc(F)cc1)c1cc(C(F)(F)F)cc(C(F)(F)F)c1 [Fosaprepitant dimeglumine salt],percent Bodipy-positive cells,[1],3.65 ± 0.88%
same,percent Bodipy-positive cells,[2],12.3 ± 4.3%
CCCCCCCCCC(=O)N[C@H](CN1CCOCC1)[C@H](O)c1ccccc1 (racemic) [DL-threo-PDMP (hydrochloride)],percent Bodipy-positive cells,[5],8 ± 0.58%
CC/C=C\C/C=C\C/C=C\CCCCCCCCCCCC(=O)O [Docosatrienoic acid (22:3 n-3)],percent Bodipy-positive cells,[5],11.9 ± 11%
c1ccc2c(CC3=NCCN3)cccc2c1 [Naphazoline HCl],percent Bodipy-positive cells,[1],11.69 ± 0.11%
same,percent Bodipy-positive cells,library stock concentration: 9.5 mM,22.2 ± 1.5%
same,percent Bodipy-positive cells,[2],35.5 ± 16%
c1ccc2c(CC3=NCCN3)cccc2c1 [Naphazoline hydrochloride],percent Bodipy-positive cells,,34.4 ± 12%
same,percent Bodipy-positive cells,library stock concentration: 8.1 mM,7.3 ± 1.5%
CC(=O)OCC(=O)[C@@]12OC(C)(C)O[C@@H]1C[C@H]1[C@@H]3C[C@H](F)C4=CC(=O)C=C[C@]4(C)[C@@]3(F)[C@@H](O)C[C@@]12C [Fluocinonide],percent Bodipy-positive cells,,6.85 ± 2.3%
same,percent Bodipy-positive cells,[1],6.47 ± 1.5%
same,percent Bodipy-positive cells,library stock concentration: 4 mM,4.36 ± 1.7%
same,percent Bodipy-positive cells,[2],15.6% and 13.2%
COC(=O)C1=CO[C@@H](C)[C@H]2CN3CCc4c([nH]c5ccccc45)[C@@H]3C[C@H]12 [Ajmalicine hydrochloride],percent Bodipy-positive cells,,50.6 ± 18%
CC(C=CC(=O)NO)=CC(C)C(=O)c1ccc(N(C)C)cc1 (stereo not given) [Trichostatin A (TSA)],percent Bodipy-positive cells,[1],64.7 ± 0.83%
same,percent Bodipy-positive cells,[2],78.9 ± 9.8%
Cc1cc(Nc2cc(N3CCN(C)CC3)nc(C=Cc3ccccc3)n2)n[nH]1,percent Bodipy-positive cells,[1],89.5 ± 3%
CCN(CC)CC(=O)Nc1c(C)cccc1C [Lidocaine?HCl?H2O],percent Bodipy-positive cells,library stock concentration: 17.3 mM,9.11 ± 1.4%
CCN(CC)CC(=O)Nc1c(C)cccc1C [Lidocaine hydrochloride],percent Bodipy-positive cells,[2],28.6% and 25.7%
CCN(CC)CC(=O)Nc1c(C)cccc1C,percent Bodipy-positive cells,library stock concentration: 9.6 mM,11.6 ± 0.4%
CCN(CC)CC(=O)Nc1c(C)cccc1C [Lidoca?ne hydrochloride],percent Bodipy-positive cells,,28.1 ± 2.6%
CCN(CC)CC(=O)Nc1c(C)cccc1C [Lidocaine],percent Bodipy-positive cells,[1],11.8 ± 1.1%
same,percent Bodipy-positive cells,[2],19.7 ± 4.3%
CN(c1ccccc1CNc1nc(Nc2ccc3c(c2)CC(=O)N3)ncc1C(F)(F)F)S(C)(=O)=O,percent Bodipy-positive cells,[6],9.25 ± 3%
same,percent Bodipy-positive cells,[3],10.5% and 12.5%
same,percent Bodipy-positive cells,[2],34.5% and 45.9%
O=C1NS(=O)(=O)c2ccccc21 [Saccharin],percent Bodipy-positive cells,[2],24.8 ± 1.9%
same,percent Bodipy-positive cells,library stock concentration: 10.9 mM,23.7 ± 1.9%
NS(=O)(=O)c1cc2c(cc1Cl)NC(C1CC3C=CC1C3)NS2(=O)=O (stereo not given) [Cyclothiazide],percent Bodipy-positive cells,library stock concentration: 5.1 mM,11.3 ± 3.2%
CC(=O)CC(c1ccccc1)c1c(O)c2ccccc2oc1=O (stereo not given) [(?)-Warfarin],percent Bodipy-positive cells,[5],11.35 ± 0.012%
CC(=O)CC(c1ccccc1)c1c(O)c2ccccc2oc1=O (stereo not given),percent Bodipy-positive cells,[2],26.4 ± 5%
CC(=O)CC(c1ccccc1)c1c(O)c2ccccc2oc1=O (stereo not given) [Warfarin],percent Bodipy-positive cells,[2],19.9 ± 0.73%
S=C(S)N1CCCC1 [Pyrrolidinedithiocarbamate ammonium],percent Bodipy-positive cells,[2],17.1 ± 1.7%
S=C(S)N1CCCC1 [Ammonium pyrrolidinedithiocarbamate],percent Bodipy-positive cells,[2],16.06 ± 0.05%
CCCCCCCCCCCCCCCCCC(=O)N[C@H]1CCOC1=O [N-octadecanoyl-L-Homoserine lactone],percent Bodipy-positive cells,[5],11.1 ± 4.7%
CO[C@@H]1[C@@H](O[C@@H]2O[C@H](C)[C@@H](O[C@H]3C[C@@](C)(O)[C@@H](OC(=O)CC(C)C)[C@H](C)O3)[C@H](N(C)C)[C@H]2O)[C@@H](CC=O)C[C@@H](C)[C@@H](O)/C=C/C=C/C[C@@H](C)OC(=O)C[C@H]1OC(C)=O [Josamycin],percent Bodipy-positive cells,,28.3 ± 10%
CSC(=N)NCCC[C@H](N)C(=O)O [S-Methyl-L-thiocitrulline acetate],percent Bodipy-positive cells,[2],28.3 ± 5.7%
O=c1oc2c(O)c(O)cc3c(=O)oc4c(O)c(O)cc1c4c23 [Ellagic acid],percent Bodipy-positive cells,[6],8.85 ± 1.5%
same,percent Bodipy-positive cells,[3],33.1 ± 31%
same,percent Bodipy-positive cells,[4],5.13 ± 0.6%
NC(N)=NC(=O)c1nc(Cl)c(N)nc1N,percent Bodipy-positive cells,[2],4.8 ± 1.2%
"CCCCC/C=C\C/C=C\CC1OC1C/C=C\CCCC(=O)O (stereo not given) [8,9-Epoxyeicosatrienoic acid]",percent Bodipy-positive cells,library stock concentration: 100 uM,13.4 ± 9.6%
COc1cccc2c1C(=O)c1c(O)c3c(c(O)c1C2=O)C[C@@](O)(C(C)=O)C[C@@H]3O[C@H]1C[C@H](N)[C@H](O)[C@H](C)O1 [Daunorubicin hydrochloride],percent Bodipy-positive cells,,100%
same,percent Bodipy-positive cells,[2],100%
COc1cccc2c1C(=O)c1c(O)c3c(c(O)c1C2=O)C[C@@](O)(C(C)=O)C[C@@H]3O[C@H]1C[C@H](N)[C@H](O)[C@H](C)O1 [Daunorubicin HCl],percent Bodipy-positive cells,[1],100%
same,percent Bodipy-positive cells,[2],100%
COc1cccc2c1C(=O)c1c(O)c3c(c(O)c1C2=O)C[C@@](O)(C(C)=O)C[C@@H]3O[C@H]1C[C@H](N)[C@H](O)[C@H](C)O1,percent Bodipy-positive cells,[2],100%

# No new results follow: entries from further up.
compound,measurement,setting,value
NC(N)=NC(=O)c1nc(Cl)c(N)nc1N,percent Bodipy-positive cells,[2],4.8 ± 1.2%
"CCCCC/C=C\C/C=C\CC1OC1C/C=C\CCCC(=O)O (stereo not given) [8,9-Epoxyeicosatrienoic acid]",percent Bodipy-positive cells,library stock concentration: 100 uM,13.4 ± 9.6%
COc1cccc2c1C(=O)c1c(O)c3c(c(O)c1C2=O)C[C@@](O)(C(C)=O)C[C@@H]3O[C@H]1C[C@H](N)[C@H](O)[C@H](C)O1 [Daunorubicin hydrochloride],percent Bodipy-positive cells,,100%
